Binding data for 13 substances are collected here from paper PMC6629890.

These are yes or no findings as the source states them, for the method shown. A result given as binding can be weak or reduced; the word gives no strength. For some assays here: Binding seen in cells or lysates may run through a third protein.

Experiment [1] has as its target T1, glyceraldehyde-3-phosphate dehydrogenase, endogenous in P. lutzii protein extract (Paracoccidioides lutzii (endogenous in P. lutzii cells)) (UniProt Q8X1X3).
T1 sequence: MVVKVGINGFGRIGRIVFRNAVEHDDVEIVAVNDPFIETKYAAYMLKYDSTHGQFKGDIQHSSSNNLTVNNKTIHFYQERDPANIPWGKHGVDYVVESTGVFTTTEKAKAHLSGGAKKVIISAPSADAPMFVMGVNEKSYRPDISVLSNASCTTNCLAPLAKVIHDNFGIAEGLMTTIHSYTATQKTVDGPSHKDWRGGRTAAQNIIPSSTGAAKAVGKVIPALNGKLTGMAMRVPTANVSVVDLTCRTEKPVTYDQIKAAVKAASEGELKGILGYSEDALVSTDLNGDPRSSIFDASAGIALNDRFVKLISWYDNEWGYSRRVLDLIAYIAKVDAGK
In words: native gel or EMSA; Blue Native PAGE (5-18% gradient, 12 C, pH 7.0) of 300 ug water-soluble proteins of P. lutzii mycelium, mycelium-to-yeast transition and yeast; multiprotein complex with GAPDH excised, in-gel digestion, NanoLC-MSE. For orientation: In EMSA bound probe runs differently from free probe, usually more slowly.

The target of experiment [2] is T1, glyceraldehyde-3-phosphate dehydrogenase, endogenous in P. lutzii protein extract (Paracoccidioides lutzii (endogenous in P. lutzii cells)). As to the kind of experiment: co-IP; target antibodies on protein A sepharose 4B, 3 h with 3 mg/mL total P. lutzii protein extract; washes 10 mM tris pH 7.4, 1% Triton, 1 mM EDTA; eluted with 0.2 M glycine pH 2.6; SDS-PAGE and Western blot. In general terms: A western blot detects proteins with antibodies after separation by electrophoresis.

On to protein 14-3-3, for which the binding entry in experiment [1] was “binds”.

For enolase (enzyme), the binding result in experiment [2] and in experiment [1] was “binds” each time.

Consider 2-methylcitrate synthase (enzyme), for which the binding entry in experiment [2] and in experiment [1] was “binds” in each case.

On to DNA damage checkpoint protein rad24, for which the binding entry in experiment [1] is “binds”.

Take “NAD(P)H:quinone oxidoreductase type IV (enzyme)”: in experiment [1], the binding entry is “binds”.

enoyl-CoA hydratase (enzyme): in experiment [1], the binding result is recorded as “binds”.

For acetyl-CoA acetyltransferase (enzyme), the binding result in experiment [1] was “binds”.

As for isocitrate lyase (enzyme), the binding entry in experiment [2] and in experiment [1] was “binds” each time.

2-methylcitrate dehydratase (enzyme): the binding entry in experiment [1] was “binds”.

As for triose phosphate isomerase (enzyme), the binding result in experiment [2] and in experiment [1] was “binds” in each case.

As for aldehyde dehydrogenase (enzyme), the binding entry in experiment [1] is given as “binds”.

As for HSP90, the binding entry in experiment [1] is “binds”.

As for alcohol dehydrogenase (enzyme), the binding entry in experiment [1] is “binds”.
